Laboratory results taken from the supplement of paper PMC10849652.
The list shows a part of the results.

Sequences of proteins named here, by UniProt entry; tags and fusion partners are left off. A change or cut given only in a name is not applied to a line headed by its entry.
UniProt P16989, whole entry, looked up: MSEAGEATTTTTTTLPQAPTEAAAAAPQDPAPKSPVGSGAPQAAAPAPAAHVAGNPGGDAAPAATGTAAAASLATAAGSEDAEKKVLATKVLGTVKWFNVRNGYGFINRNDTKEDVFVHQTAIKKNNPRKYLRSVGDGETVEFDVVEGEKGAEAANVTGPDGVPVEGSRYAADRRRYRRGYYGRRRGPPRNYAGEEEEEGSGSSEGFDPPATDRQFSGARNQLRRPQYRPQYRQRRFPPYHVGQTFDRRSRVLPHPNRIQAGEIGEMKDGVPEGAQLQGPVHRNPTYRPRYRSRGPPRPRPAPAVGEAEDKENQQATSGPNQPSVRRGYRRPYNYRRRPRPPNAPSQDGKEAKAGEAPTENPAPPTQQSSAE
UniProt Q9C0E2: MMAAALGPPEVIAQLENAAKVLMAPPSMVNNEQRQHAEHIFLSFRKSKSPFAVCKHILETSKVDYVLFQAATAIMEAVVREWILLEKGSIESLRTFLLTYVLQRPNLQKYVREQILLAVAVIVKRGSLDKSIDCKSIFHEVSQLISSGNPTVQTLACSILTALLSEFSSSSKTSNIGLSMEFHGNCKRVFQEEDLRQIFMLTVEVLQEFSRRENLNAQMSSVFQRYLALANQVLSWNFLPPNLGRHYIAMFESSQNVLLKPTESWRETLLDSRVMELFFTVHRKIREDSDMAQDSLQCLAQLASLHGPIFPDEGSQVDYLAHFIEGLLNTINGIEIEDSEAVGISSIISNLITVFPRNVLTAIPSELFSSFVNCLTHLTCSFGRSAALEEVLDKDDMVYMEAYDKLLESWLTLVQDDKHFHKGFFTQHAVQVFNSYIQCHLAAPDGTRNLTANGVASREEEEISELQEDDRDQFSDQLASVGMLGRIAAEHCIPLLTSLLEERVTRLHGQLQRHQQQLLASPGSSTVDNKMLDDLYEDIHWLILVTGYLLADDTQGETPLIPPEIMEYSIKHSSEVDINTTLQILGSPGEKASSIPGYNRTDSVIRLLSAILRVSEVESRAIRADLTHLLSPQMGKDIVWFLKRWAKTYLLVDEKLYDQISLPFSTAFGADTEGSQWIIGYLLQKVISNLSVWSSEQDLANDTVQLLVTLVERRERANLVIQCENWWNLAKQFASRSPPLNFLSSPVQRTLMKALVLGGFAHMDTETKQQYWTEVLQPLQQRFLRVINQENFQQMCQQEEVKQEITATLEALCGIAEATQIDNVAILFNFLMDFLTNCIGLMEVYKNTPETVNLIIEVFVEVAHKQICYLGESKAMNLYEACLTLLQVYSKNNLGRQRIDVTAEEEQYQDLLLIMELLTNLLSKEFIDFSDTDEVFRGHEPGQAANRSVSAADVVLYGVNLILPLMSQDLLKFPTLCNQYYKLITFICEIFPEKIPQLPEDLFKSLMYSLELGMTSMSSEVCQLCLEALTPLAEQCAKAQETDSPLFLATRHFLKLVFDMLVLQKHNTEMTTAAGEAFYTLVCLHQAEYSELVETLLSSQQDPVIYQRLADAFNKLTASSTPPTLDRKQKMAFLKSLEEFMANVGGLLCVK
UniProt Q96TA2: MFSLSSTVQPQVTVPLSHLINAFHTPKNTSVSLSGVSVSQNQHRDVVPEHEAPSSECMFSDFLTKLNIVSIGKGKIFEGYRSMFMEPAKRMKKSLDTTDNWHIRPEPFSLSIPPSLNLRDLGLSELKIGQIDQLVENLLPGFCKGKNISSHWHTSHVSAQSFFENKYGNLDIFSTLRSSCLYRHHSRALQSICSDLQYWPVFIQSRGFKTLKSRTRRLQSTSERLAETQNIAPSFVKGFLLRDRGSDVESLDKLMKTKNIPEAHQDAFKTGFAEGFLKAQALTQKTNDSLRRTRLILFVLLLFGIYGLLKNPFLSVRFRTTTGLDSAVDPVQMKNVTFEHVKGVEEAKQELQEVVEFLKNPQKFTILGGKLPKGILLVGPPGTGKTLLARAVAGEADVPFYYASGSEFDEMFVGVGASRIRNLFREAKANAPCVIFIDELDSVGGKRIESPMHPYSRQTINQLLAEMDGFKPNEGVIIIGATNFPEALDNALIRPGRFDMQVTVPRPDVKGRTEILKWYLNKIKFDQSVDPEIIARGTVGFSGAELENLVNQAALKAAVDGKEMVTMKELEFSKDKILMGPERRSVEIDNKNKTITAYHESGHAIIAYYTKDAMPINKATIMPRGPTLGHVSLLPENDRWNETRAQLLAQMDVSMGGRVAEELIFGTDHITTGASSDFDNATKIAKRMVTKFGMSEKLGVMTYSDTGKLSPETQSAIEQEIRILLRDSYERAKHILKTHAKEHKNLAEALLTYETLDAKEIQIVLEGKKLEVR
UniProt Q86T24: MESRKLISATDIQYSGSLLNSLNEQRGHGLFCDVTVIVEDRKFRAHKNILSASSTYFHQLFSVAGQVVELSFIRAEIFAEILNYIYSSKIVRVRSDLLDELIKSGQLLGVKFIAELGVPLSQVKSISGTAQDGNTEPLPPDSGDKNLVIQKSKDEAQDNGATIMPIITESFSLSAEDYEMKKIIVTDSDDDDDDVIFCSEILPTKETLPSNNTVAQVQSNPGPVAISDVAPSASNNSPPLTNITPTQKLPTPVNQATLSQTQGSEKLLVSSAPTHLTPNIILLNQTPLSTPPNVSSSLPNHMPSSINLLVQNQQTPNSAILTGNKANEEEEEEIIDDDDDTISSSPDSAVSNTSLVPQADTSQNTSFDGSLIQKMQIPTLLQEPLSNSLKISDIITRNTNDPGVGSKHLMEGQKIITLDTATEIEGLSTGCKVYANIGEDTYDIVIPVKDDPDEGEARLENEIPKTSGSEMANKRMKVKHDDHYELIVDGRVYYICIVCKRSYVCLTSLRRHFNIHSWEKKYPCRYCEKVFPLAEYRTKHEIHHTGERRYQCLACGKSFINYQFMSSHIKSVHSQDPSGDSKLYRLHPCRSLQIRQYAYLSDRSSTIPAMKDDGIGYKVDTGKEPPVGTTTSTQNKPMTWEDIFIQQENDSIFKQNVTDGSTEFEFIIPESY
UniProt P13010: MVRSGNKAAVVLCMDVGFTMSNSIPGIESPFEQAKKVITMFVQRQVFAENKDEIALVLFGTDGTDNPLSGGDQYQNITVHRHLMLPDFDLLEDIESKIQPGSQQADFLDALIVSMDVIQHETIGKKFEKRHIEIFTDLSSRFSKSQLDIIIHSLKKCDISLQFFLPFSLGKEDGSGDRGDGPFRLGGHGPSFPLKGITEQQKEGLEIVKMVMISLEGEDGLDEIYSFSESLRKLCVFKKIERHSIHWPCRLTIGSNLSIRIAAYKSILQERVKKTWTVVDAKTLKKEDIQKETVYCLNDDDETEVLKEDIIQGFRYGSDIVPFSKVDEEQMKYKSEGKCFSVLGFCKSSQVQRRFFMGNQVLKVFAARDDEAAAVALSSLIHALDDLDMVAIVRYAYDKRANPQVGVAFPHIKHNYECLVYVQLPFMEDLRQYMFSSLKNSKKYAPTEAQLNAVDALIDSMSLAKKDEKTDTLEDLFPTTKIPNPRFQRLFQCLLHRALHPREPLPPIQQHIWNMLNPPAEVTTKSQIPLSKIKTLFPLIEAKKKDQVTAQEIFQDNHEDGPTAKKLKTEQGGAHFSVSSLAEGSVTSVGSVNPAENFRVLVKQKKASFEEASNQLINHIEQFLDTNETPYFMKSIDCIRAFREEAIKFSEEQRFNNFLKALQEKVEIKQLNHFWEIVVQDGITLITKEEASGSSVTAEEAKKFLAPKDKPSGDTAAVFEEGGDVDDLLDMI
UniProt Q96KR1: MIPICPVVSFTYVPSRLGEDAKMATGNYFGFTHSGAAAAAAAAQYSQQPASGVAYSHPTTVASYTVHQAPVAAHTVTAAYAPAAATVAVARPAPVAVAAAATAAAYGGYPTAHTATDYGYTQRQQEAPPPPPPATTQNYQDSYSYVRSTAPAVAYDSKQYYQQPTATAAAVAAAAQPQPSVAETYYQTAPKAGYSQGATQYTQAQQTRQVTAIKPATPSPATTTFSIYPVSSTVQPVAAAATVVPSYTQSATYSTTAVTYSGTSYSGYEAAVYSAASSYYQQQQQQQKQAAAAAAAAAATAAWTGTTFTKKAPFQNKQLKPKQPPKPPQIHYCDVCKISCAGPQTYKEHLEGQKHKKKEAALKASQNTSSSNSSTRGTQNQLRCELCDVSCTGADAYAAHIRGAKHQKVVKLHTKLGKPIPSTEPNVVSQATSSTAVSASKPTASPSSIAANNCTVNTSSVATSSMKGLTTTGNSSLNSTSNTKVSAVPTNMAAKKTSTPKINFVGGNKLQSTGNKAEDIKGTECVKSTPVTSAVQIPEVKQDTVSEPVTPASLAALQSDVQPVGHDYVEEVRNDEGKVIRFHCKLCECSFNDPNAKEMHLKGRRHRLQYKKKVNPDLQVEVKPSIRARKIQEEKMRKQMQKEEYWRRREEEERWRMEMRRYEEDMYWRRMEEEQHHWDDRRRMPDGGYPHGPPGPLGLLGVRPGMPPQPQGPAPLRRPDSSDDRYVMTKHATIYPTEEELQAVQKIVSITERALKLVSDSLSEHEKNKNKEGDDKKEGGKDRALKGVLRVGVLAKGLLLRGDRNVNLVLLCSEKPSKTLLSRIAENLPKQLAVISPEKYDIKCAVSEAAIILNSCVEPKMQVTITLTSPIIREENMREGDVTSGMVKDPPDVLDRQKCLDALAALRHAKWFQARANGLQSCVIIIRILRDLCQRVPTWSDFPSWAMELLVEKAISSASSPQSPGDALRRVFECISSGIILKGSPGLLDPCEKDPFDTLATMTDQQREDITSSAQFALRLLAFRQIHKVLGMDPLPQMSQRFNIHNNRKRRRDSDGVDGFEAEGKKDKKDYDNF
UniProt Q7Z2W4: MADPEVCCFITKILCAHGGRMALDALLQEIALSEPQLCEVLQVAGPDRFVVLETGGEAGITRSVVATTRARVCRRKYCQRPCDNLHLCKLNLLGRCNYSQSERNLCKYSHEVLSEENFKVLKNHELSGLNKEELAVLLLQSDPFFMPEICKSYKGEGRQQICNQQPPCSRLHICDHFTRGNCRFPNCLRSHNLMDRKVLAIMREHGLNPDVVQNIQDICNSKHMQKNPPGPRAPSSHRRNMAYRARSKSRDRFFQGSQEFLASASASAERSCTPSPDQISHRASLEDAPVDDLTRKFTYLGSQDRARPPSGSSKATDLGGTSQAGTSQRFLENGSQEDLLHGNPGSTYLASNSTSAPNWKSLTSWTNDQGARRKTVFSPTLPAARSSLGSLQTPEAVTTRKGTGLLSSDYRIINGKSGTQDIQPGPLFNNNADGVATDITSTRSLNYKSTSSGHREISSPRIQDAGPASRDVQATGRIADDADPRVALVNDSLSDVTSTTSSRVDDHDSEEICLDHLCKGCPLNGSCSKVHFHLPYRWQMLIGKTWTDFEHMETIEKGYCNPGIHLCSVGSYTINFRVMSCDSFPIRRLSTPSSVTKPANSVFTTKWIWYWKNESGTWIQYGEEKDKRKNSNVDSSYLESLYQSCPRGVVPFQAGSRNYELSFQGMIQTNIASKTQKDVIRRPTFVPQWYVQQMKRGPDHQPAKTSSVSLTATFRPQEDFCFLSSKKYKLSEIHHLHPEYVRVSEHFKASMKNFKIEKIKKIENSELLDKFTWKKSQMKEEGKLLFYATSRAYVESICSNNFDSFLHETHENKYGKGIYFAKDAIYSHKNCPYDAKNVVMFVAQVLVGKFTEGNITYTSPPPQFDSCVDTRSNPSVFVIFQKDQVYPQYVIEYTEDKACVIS
UniProt Q5BJH7: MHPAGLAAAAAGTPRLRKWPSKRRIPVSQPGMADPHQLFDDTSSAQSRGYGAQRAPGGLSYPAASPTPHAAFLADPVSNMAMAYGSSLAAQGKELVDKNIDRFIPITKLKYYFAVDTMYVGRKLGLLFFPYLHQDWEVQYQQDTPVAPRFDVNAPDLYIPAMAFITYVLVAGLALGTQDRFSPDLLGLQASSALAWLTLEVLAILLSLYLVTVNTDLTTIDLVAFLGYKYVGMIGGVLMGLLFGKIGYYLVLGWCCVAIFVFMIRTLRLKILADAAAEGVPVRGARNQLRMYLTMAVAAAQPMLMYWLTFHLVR
UniProt Q9NP64: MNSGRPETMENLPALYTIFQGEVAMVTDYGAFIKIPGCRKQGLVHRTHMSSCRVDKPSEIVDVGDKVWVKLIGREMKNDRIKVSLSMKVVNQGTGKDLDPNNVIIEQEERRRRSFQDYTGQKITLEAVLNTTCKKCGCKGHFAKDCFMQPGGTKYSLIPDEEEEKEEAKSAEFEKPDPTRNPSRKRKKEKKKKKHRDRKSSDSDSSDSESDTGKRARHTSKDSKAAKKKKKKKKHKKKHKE
UniProt Q5W0Z9: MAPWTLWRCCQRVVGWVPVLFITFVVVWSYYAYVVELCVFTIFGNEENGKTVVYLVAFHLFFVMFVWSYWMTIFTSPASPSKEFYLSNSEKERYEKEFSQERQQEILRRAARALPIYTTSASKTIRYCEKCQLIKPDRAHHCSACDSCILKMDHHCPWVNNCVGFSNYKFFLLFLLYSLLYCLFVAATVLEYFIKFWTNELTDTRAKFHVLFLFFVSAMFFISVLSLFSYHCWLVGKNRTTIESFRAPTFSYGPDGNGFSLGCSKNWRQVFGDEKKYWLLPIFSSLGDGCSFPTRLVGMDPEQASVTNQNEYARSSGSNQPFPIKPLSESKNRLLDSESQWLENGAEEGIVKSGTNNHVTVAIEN

Tests used:
Test in all cases: log2 fold change, soluble protein after heating vs DMSO (PISA); higher = thermal stabilisation; K562 lysate, 10 uM; active = over 0.2 and 3.5 SD of the protein, either way, in both replicates (recomputed)
lapatinib = compound: CS(=O)(=O)CCNCc1ccc(-c2ccc3ncnc(Nc4ccc(OCc5cccc(F)c5)c(Cl)c4)c3c2)o1 [lapatinib]
Summary of the method: (§1)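 Thermal stability, expressed as log-two fold change relative to solvent controls, is given from duplicates. Crude K562 extract in PBS pH 7.4 with 1 mM MgCl2, at 1 mg/mL protein, was treated with 10 μM compound for 30 min and heated in aliquots for 3 min across 48°C-58°C. After pooling, adjustment to 0.5% NP-40 at 4°C and centrifugation at 21,000xg for 90 min, supernatant protein was measured by TMTpro 16plex LC-MS/MS with channel sums equalised.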

pictilisib = compound: CS(=O)(=O)N1CCN(Cc2cc3nc(-c4cccc5[nH]ncc45)nc(N4CCOCC4)c3s2)CC1 [pictilisib]
Summary of the method: as §1

crizotinib = compound: C[C@@H](Oc1cc(-c2cnn(C3CCNCC3)c2)cnc1N)c1c(Cl)ccc(F)c1Cl [crizotinib]
Summary of the method: as §1

[1] = compound: C[C@H](C1=CC=C(C=C1)C(=O)NC2=C3C=CNC3=NC=C2)N
Summary of the method: as §1

duvelisib = compound: C[C@H](Nc1ncnc2nc[nH]c12)c1cc2cccc(Cl)c2c(=O)n1-c1ccccc1 [duvelisib]
Summary of the method: as §1

gandotinib = compound: Cc1cc(Nc2cc(CN3CCOCC3)c3nc(C)c(Cc4ccc(Cl)cc4F)n3n2)n[nH]1 [gandotinib]
Summary of the method: as §1

tozasertib = compound: Cc1cc(Nc2cc(N3CCN(C)CC3)nc(Sc3ccc(NC(=O)C4CC4)cc3)n2)n[nH]1 [tozasertib]
Summary of the method: as §1

doramapimod = compound: Cc1ccc(-n2nc(C(C)(C)C)cc2NC(=O)Nc2ccc(OCCN3CCOCC3)c3ccccc23)cc1 [doramapimod]
Summary of the method: as §1

bafetinib = compound: Cc1ccc(NC(=O)c2ccc(CN3CC[C@H](N(C)C)C3)c(C(F)(F)F)c2)cc1Nc1nccc(-c2cncnc2)n1 [bafetinib]
Summary of the method: as §1

[2] = compound: Cc1cccc(CC(=O)N2CCc3c2ccc(-c2cn(C)c4ncnc(N)c24)c3F)n1
Summary of the method: as §1

Target | log2 fold change (lapatinib) | log2 fold change (pictilisib) | log2 fold change (crizotinib) | log2 fold change [1] | log2 fold change (duvelisib) | log2 fold change (gandotinib) | log2 fold change (tozasertib) | log2 fold change (doramapimod) | log2 fold change (bafetinib) | log2 fold change [2]
ZBTB3 (UniProt Q9H5J0) | inactive: 0.017 | inactive: -0.247 | inactive: -0.004 | inactive: 0.102 | inactive: -0.053 | inactive: -0.058 | inactive: 0.045 | inactive: 0.057 | inactive: 0.125 | inactive: 0.24
YTHDF3 (UniProt Q7Z739) | inactive: -0.065 | inactive: 0.05 | inactive: 0.01 | inactive: -0.035 | inactive: 0.017 | inactive: 0.107 | inactive: -0.03 | inactive: 0.078 | inactive: -0.073 | inactive: 0.097
ZFPM1 (UniProt Q8IX07) | inactive: -0.003 | inactive: -0.008 | inactive: -0.135 | inactive: 0.009 | inactive: 0.001 | inactive: -0.079 | inactive: -0.118 | inactive: 0.023 | inactive: -0.077 | inactive: -0.018
YBX3 isoform 2 (UniProt P16989) | inactive: 0.103 | inactive: 0.153 | inactive: 0.061 | inactive: 0.074 | inactive: 0.052 | inactive: 0.033 | inactive: 0.005 | inactive: -0.008 | inactive: -0.027 | inactive: 0.233
ZFP91 (UniProt Q96JP5) | inactive: 0.013 | inactive: 0.045 | inactive: -0.068 | inactive: 0.109 | inactive: 0.034 | inactive: -0.059 | inactive: -0.005 | inactive: 0.017 | inactive: -0.067 | inactive: -0.079
XPO4 (UniProt Q9C0E2) | inactive: -0.028 | inactive: -0.02 | inactive: -0.034 | inactive: -0.068 | inactive: 0.017 | inactive: -0.023 | inactive: 0 | inactive: 0.006 | inactive: -0.033 | inactive: 0.071
XPR1 (UniProt Q9UBH6) | inactive: 0.025 | inactive: -0.01 | inactive: -0.079 | inactive: 0.048 | inactive: 0.015 | inactive: -0.072 | inactive: 0 | inactive: -0.038 | inactive: -0.024 | inactive: -0.022
YME1L1 (UniProt Q96TA2) | inactive: -0.025 | inactive: -0.034 | inactive: -0.073 | inactive: 0.01 | inactive: -0.017 | inactive: -0.112 | inactive: 0.048 | inactive: -0.023 | inactive: -0.024 | inactive: 0.055
YAF2 isoform 5 (UniProt Q8IY57) | inactive: -0.066 | inactive: 0.071 | inactive: -0.009 | inactive: 0.177 | inactive: -0.008 | inactive: -0.034 | inactive: -0.139 | inactive: 0.005 | inactive: 0.043 | inactive: -0.224
ZBTB33 (UniProt Q86T24) | inactive: 0.047 | inactive: 0.149 | inactive: -0.111 | inactive: -0.165 | inactive: -0.041 | inactive: 0.028 | inactive: 0.048 | inactive: 0.022 | inactive: 0.046 | inactive: 0.048
XRCC5 (UniProt P13010) | inactive: -0.016 | inactive: -0.009 | inactive: -0.018 | inactive: 0.068 | inactive: 0.008 | inactive: -0.067 | inactive: -0.003 | inactive: -0.024 | inactive: -0.022 | inactive: -0.015
XXYLT1 (UniProt Q8NBI6) | inactive: -0.045 | inactive: -0.038 | inactive: -0.036 | inactive: 0 | inactive: 0.034 | inactive: -0.023 | inactive: -0.02 | inactive: -0.03 | inactive: -0.051 | inactive: 0.044
YWHAQ (UniProt P27348) | inactive: 0.001 | inactive: 0.038 | inactive: 0.07 | active: 0.466 | inactive: -0.012 | inactive: -0.089 | inactive: -0.024 | inactive: -0.043 | inactive: -0.043 | inactive: -0.095
XPO6 (UniProt Q96QU8) | inactive: -0.012 | inactive: -0.069 | inactive: -0.086 | inactive: -0.158 | inactive: 0.06 | inactive: 0.005 | inactive: 0.072 | inactive: 0.034 | inactive: -0.105 | inactive: 0.175
XPOT (UniProt F5GYW6) | inactive: -0.115 |  |  |  |  |  |  |  |  | 
ZFR (UniProt Q96KR1) | inactive: -0.017 | inactive: -0.062 | inactive: 0.025 | inactive: -0.009 | inactive: -0.051 | inactive: -0.065 | inactive: -0.008 | inactive: 0.017 | inactive: 0.082 | inactive: 0.07
ZFAND2B (UniProt Q8WV99) | inactive: -0.004 | inactive: -0.022 | inactive: -0.02 | inactive: -0.158 | inactive: 0.03 | inactive: 0.227 | inactive: -0.02 | inactive: 0.144 | inactive: 0.023 | inactive: 0.129
ZC3H7B (UniProt Q9UGR2) | inactive: 0.02 | inactive: -0.019 | inactive: -0.082 | inactive: -0.012 | inactive: 0.004 | inactive: -0.144 | inactive: 0.031 | inactive: 0.041 | inactive: -0.182 | inactive: 0.046
ZC3HAV1 (UniProt Q7Z2W4) | inactive: 0 | inactive: 0.021 | inactive: -0.011 | inactive: 0.012 | inactive: 0.011 | inactive: -0.062 | inactive: -0.041 | inactive: 0.057 | inactive: -0.01 | inactive: 0.015
YIF1B (UniProt Q5BJH7) | inactive: -0.016 | inactive: 0.032 | inactive: 0.025 | inactive: -0.08 | inactive: -0.027 | inactive: -0.052 | inactive: -0.012 | inactive: 0.003 | inactive: -0.011 | inactive: 0.026
ZCCHC17 (UniProt Q9NP64) | inactive: 0.048 | inactive: 0.025 | inactive: -0.107 | inactive: -0.002 | inactive: 0.065 | inactive: -0.071 | inactive: -0.019 | inactive: 0.09 | inactive: 0.008 | inactive: -0.06
ZC3H8 (UniProt Q8N5P1) | inactive: -0.066 | inactive: 0.007 | inactive: -0.009 | inactive: 0.056 | inactive: 0.012 | inactive: -0.039 | inactive: 0.057 | inactive: -0.016 | inactive: -0.043 | inactive: -0.041
ZGPAT (UniProt Q8N5A5) | inactive: 0.011 | inactive: 0.065 | inactive: -0.044 | inactive: -0.049 | inactive: -0.054 | inactive: 0.008 | inactive: 0.07 | inactive: 0.051 | inactive: 0 | inactive: -0.028
ZFYVE9 (UniProt O95405) | inactive: -0.032 | inactive: -0.089 | inactive: -0.016 | inactive: -0.027 | inactive: 0.006 | inactive: 0.013 | inactive: -0.095 | inactive: -0.014 | inactive: -0.022 | inactive: 0.019
YWHAE (UniProt P62258) | inactive: 0.022 | inactive: 0.002 | inactive: 0.004 | inactive: 0.001 | inactive: 0.016 | inactive: 0.01 | inactive: 0.002 | inactive: 0.02 | inactive: -0.002 | inactive: -0.018
ZDHHC5 (UniProt Q9C0B5) | inactive: -0.018 | inactive: -0.037 | inactive: 0.006 | inactive: 0 | inactive: 0.024 | inactive: -0.026 | inactive: 0.022 | inactive: 0.019 | inactive: -0.028 | inactive: -0.011
ZDHHC20 (UniProt Q5W0Z9) | inactive: 0.016 | inactive: -0.025 | inactive: -0.156 | inactive: -0.001 | inactive: 0.029 | inactive: 0.027 | inactive: 0.007 | inactive: -0.072 | inactive: -0.036 | inactive: 0
YTHDC2 (UniProt Q9H6S0) | inactive: -0.029 | inactive: -0.007 | inactive: -0.042 | inactive: 0.023 | inactive: 0.032 | inactive: -0.013 | inactive: -0.03 | inactive: 0.007 | inactive: -0.022 | inactive: -0.066

Some entries already given, showing only log2 fold change (crizotinib) and log2 fold change [2].
Target	log2 fold change (crizotinib)	log2 fold change [2]
ZCCHC17 (UniProt Q9NP64)	inactive: -0.107	inactive: -0.06
ZC3H8 (UniProt Q8N5P1)	inactive: -0.009	inactive: -0.041
